Test results as given in publication PMC12036977.
Results are given in words; binding and its absence hold for the method and conditions named. In cells and extracts the contact can be indirect. Some binding calls cover weakened binding; strength is not graded here. Where a sequence is shown, tags or fusion partners need not be part of it.

T1: Recombinant KCNJ13-FLAG (UniProt O60928)
T1 sequence: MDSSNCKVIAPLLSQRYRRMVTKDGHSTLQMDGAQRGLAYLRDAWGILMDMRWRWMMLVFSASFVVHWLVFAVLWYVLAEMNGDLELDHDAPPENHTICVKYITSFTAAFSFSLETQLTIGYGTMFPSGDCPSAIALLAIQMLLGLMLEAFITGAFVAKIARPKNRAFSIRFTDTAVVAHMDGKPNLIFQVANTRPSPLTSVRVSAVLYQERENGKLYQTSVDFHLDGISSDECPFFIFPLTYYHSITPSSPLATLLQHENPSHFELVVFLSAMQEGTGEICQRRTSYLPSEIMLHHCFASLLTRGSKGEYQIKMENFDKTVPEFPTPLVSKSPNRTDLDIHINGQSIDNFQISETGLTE

T2: Recombinant ADIPOR1-FLAG (UniProt Q96A54)
T2 sequence: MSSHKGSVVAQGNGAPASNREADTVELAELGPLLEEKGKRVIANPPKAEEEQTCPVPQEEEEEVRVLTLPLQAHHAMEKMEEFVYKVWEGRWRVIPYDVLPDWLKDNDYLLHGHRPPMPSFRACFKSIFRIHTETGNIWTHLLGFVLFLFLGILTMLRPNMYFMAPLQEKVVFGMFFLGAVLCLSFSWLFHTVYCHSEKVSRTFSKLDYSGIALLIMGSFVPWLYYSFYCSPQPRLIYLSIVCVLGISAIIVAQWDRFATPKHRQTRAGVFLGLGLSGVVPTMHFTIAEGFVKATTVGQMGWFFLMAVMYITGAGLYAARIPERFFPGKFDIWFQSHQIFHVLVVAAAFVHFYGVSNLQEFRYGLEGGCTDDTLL

T3: Recombinant human MFRP-1D4 (human) (UniProt Q9BY79)
T3 sequence: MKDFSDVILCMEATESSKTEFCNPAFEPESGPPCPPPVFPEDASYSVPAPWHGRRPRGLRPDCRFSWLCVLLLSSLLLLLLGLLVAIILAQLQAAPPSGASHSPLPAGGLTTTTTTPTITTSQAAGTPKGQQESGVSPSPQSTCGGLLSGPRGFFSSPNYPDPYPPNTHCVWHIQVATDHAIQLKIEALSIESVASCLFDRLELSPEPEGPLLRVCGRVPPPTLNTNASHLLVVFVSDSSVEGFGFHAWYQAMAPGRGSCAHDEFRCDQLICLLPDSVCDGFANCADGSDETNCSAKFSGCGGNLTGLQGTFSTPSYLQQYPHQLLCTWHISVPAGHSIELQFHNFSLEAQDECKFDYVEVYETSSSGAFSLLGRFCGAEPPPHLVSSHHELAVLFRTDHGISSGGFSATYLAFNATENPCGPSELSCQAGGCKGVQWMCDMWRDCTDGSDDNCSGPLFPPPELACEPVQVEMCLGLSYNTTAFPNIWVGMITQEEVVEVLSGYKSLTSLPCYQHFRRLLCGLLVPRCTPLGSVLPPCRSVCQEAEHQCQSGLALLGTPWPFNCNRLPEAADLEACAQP


Legend:
Experiment in all cases: co-IP; detergent-solubilized recombinant proteins with FLAG (ADIPOR1, KCNJ13) or 1D4 (MFRP) epitopes, produced in the mammalian system; anti-FLAG, anti-1D4 or normal IgG (ctrl) resins; immunoblotting
Recombinant KCNJ13-FLAG = molecular target: T1, Recombinant KCNJ13-FLAG
Recombinant ADIPOR1-FLAG = molecular target: T2, Recombinant ADIPOR1-FLAG
[1] = molecular target: T3, Recombinant human MFRP-1D4 (human)

binding (Recombinant KCNJ13-FLAG)	binding (Recombinant ADIPOR1-FLAG)	binding [1]	Binder
binds	binds	–	Recombinant human MFRP-1D4 (protein, UniProt Q9BY79 1-579) MKDFSDVILCMEATESSKTEFCNPAFEPESGPPCPPPVFPEDASYSVPAPWHGRRPRGLRPDCRFSWLCVLLLSSLLLLLLGLLVAIILAQLQAAPPSGASHSPLPAGGLTTTTTTPTITTSQAAGTPKGQQESGVSPSPQSTCGGLLSGPRGFFSSPNYPDPYPPNTHCVWHIQVATDHAIQLKIEALSIESVASCLFDRLELSPEPEGPLLRVCGRVPPPTLNTNASHLLVVFVSDSSVEGFGFHAWYQAMAPGRGSCAHDEFRCDQLICLLPDSVCDGFANCADGSDETNCSAKFSGCGGNLTGLQGTFSTPSYLQQYPHQLLCTWHISVPAGHSIELQFHNFSLEAQDECKFDYVEVYETSSSGAFSLLGRFCGAEPPPHLVSSHHELAVLFRTDHGISSGGFSATYLAFNATENPCGPSELSCQAGGCKGVQWMCDMWRDCTDGSDDNCSGPLFPPPELACEPVQVEMCLGLSYNTTAFPNIWVGMITQEEVVEVLSGYKSLTSLPCYQHFRRLLCGLLVPRCTPLGSVLPPCRSVCQEAEHQCQSGLALLGTPWPFNCNRLPEAADLEACAQP
–	–	binds	Recombinant ADIPOR1-FLAG (receptor, UniProt Q96A54 1-375) MSSHKGSVVAQGNGAPASNREADTVELAELGPLLEEKGKRVIANPPKAEEEQTCPVPQEEEEEVRVLTLPLQAHHAMEKMEEFVYKVWEGRWRVIPYDVLPDWLKDNDYLLHGHRPPMPSFRACFKSIFRIHTETGNIWTHLLGFVLFLFLGILTMLRPNMYFMAPLQEKVVFGMFFLGAVLCLSFSWLFHTVYCHSEKVSRTFSKLDYSGIALLIMGSFVPWLYYSFYCSPQPRLIYLSIVCVLGISAIIVAQWDRFATPKHRQTRAGVFLGLGLSGVVPTMHFTIAEGFVKATTVGQMGWFFLMAVMYITGAGLYAARIPERFFPGKFDIWFQSHQIFHVLVVAAAFVHFYGVSNLQEFRYGLEGGCTDDTLL
–	–	binds	Recombinant KCNJ13-FLAG (protein, UniProt O60928 1-360) MDSSNCKVIAPLLSQRYRRMVTKDGHSTLQMDGAQRGLAYLRDAWGILMDMRWRWMMLVFSASFVVHWLVFAVLWYVLAEMNGDLELDHDAPPENHTICVKYITSFTAAFSFSLETQLTIGYGTMFPSGDCPSAIALLAIQMLLGLMLEAFITGAFVAKIARPKNRAFSIRFTDTAVVAHMDGKPNLIFQVANTRPSPLTSVRVSAVLYQERENGKLYQTSVDFHLDGISSDECPFFIFPLTYYHSITPSSPLATLLQHENPSHFELVVFLSAMQEGTGEICQRRTSYLPSEIMLHHCFASLLTRGSKGEYQIKMENFDKTVPEFPTPLVSKSPNRTDLDIHINGQSIDNFQISETGLTE
